This experiment is described as follows: qHTS Assay for Lipid Storage Modulators in Drosophila S3 Cells.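 For cell number change: cells counted by Cell Tracker Red CMTPX staining in the red channel.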 The conditions noted are these: BODIPY lipid droplet fluorescence, 18-24 h; for cell number change: measured here: cell count max response, cells fed with added oleic acid. The method in brief: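 Drosophila S3 cells loaded with oleic acid (400 uM, as added) and compounds at several concentrations; lipid droplets imaged by 488-nm laser-scanning cytometry, 500–530 nm intensity and object ratio to cell channel. Percent activity normalized to 20 uM Triacsin C.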
In general terms: qHTS replaces the single test concentration by a dilution series.

The mark [1] stands for this setting: measured here: cell number channel AC50, cells fed with added oleic acid.
Setting [2] is: measured here: lipid fluorescence (Fed channel) AC50, cells fed with added oleic acid.

Structures are written as SMILES. The list shows a part of the results. Shown are side measurements of this screen, not its main read-out; they come without a call. Most of these compounds were active or inconclusive in the main read-out, so they are no random draw. Potencies come from curve fits of mixed quality, noted in brackets.

Usually AC50 stands for the midpoint of the concentration-response curve, whichever way the signal moves. Higher therefore signals activity only at high concentration. On to `COc1ccc(NC(=O)CCS(=O)(=O)c2ccccc2Cl)cc1S(=O)(=O)Nc1ccc(Cl)cc1`, for which the cell number change is -5.41%. The AC50 under setting [1] was 2.06 µM [falling, partial curve, poor fit].
With `COC(=O)c1c(CSc2ccc(Cl)cc2)noc1C(=O)NCc1ccco1`, the cell number change was -13.5%.
Take `O=C(O)/C=C/C(=O)N1CCN(S(=O)(=O)c2cccc(C(F)(F)F)c2)CC1`: the cell number change was 5.54%. Further, the AC50 under setting [1] was 1.16 µM [falling, single point]. Further, the AC50 under setting [2] was 1.16 µM [falling, single point].
`Cc1ccc(OCCn2ccnc2)c([N+](=O)[O-])c1`: the cell number change is -1.31%.
Take `N#CC1=C(Nc2ccccc2)SC=C(c2ccccc2)N=C1N1CCOCC1`: the cell number change was found to be 132%. The AC50 under setting [1] was 9.2 µM [rising, partial curve]. Besides, the AC50 under setting [2] is 6.51 µM [rising, partial curve].
Regarding `CC(C)(C)OC(=O)N[C@H](C(=O)OC(C)(C)C)c1ccc2c(c1)OCO2`, the cell number change was found to be 14.3%.
`COc1ccc(-c2nnc(SCC(=O)NC3CC3)o2)cc1`: the cell number change was -4.64%. Besides, the AC50 under setting [2] is 23.1 µM [falling, partial curve, poor fit].
With `Cc1ccc2c(c1)nnn2C1CCN(S(=O)(=O)c2ccc(C(=O)N3C(C)CCCC3C)cc2)CC1` (stereo not given), the cell number change is -18.3%. Moreover, the AC50 under setting [2] was 29.1 µM [falling, single point].
For `O=C(COC(=O)c1ccccc1SCC(=O)N1CCCC1)Nc1ccccc1OC(F)F`, the AC50 under setting [2] was 6.51 µM [rising, partial curve].
For `CC(=O)N(/N=C/c1ccc([N+](=O)[O-])o1)c1nc2ccccc2c(=O)n1-c1ccccc1`, the cell number change was -37.7%. Further, the AC50 under setting [1] was 0.517 µM [falling, full curve]. Besides, the half-maximal activity concentration (AC50) under setting [2] was 0.651 µM [falling, full curve].
Consider `O=C(c1ccc2c(=O)n(Cc3ccccc3Cl)c(=S)[nH]c2c1)N1CCCC1`, for which the cell number change is -0.943%.
As for `Cc1ccc(C(=O)NNc2c3ccccc3nc3ccccc23)cc1`, the cell number change is -39.8%. Also, the AC50 under setting [1] is 4.11 µM [falling, partial curve]. Further, the AC50 under setting [2] was 29.1 µM [falling, single point].
On to `CCN(CC)C(=O)Cn1cnc2sc(C(=O)Nc3cc(OC)c(OC)c(OC)c3)c(C)c2c1=O`, for which the cell number change is 58.1%. Also, the AC50 under setting [1] is 14.6 µM [rising, partial curve].
Consider `CCCc1cc(=O)n2[nH]c(NCc3ccccc3F)nc2n1`, for which the cell number change is -24.6%. Further, the AC50 under setting [1] is 0.731 µM [falling, full curve]. In addition, the AC50 under setting [2] is 5.17 µM [falling, full curve].
Consider `O=c1cc(OCc2ccccc2)cc[nH]1`, for which the cell number change is -40.6%. Further, the AC50 under setting [1] is 16.4 µM [falling, single point].
Regarding `CC12CCC(C(N)=O)(C1Br)C2(C)C` (stereo not given), the cell number change was found to be 1.79%.
On to `Cc1ccc(CC(=O)N/N=C/c2ccc(OC(=O)c3ccc([N+](=O)[O-])cc3)cc2)cc1`, for which the cell number change was 19.1%. Besides, under setting [1], the AC50 was 0.731 µM [falling, single point]. The AC50 under setting [2] is 1.03 µM [falling, single point].
With `Cc1ccc(-c2cc(Cc3ccccc3)c(=O)[nH]n2)cc1`, the cell number change worked out at 24.5%.
Take `O=C(c1ccc(Br)cc1)N(C1=NCCCCS1)c1ccccc1`: the cell number change worked out at 12.5%. Also, under setting [2], the AC50 was 0.0731 µM [falling, full curve, poor fit].
With `O=C(NCC(=O)N(c1ccc(Cl)cc1)C(C(=O)NC1CCCC1)c1cccnc1)c1ccco1` (stereo not given), the cell number change was -3.81%. For the same compound, under setting [2], the AC50 is 0.206 µM [rising, single point].
Consider `Cc1cccc(NC(=O)NCC2CC2)c1`, for which the cell number change was found to be 18.6%. Under setting [2], the AC50 was 20.6 µM [rising, single point].
Regarding `Cc1cc(C[n+]2ccccc2)c2nsnc2c1`, the cell number change is -9.59%. Also, under setting [2], the AC50 is 7.31 µM [falling, partial curve, poor fit].
Turning to `CCc1nnc(NC(=O)c2sc3nc4c(cc3c2N)CCCCC4)s1`, the cell number change is -26%. Besides, the AC50 under setting [2] was 25.9 µM [falling, single point].
As for `COc1ccc(Br)cc1CN1CCN(Cc2c[nH]c3ccccc23)CC1`, the cell number change is -21.9%. For the same compound, the AC50 under setting [2] is 29.1 µM [falling, single point].
For the compound `CCCOc1ccc(C2C3=C(CCCC3=O)N(CC(=O)O)C3=C2C(=O)CCC3)cc1OCC`, the cell number change is 5.11%. Further, the AC50 under setting [2] was 29.1 µM [rising, single point].
Take `O=C(c1ccc2c(c1)OCO2)C1CCCN(Cc2ccccc2OC(F)F)C1` (stereo not given): the cell number change is 0.99%. Under setting [1], the AC50 is 6.51 µM [rising, single point].
On to `COCCOc1cc(NC(=O)c2cccc(OC)c2)c(Cl)cc1Cl`, for which the cell number change was found to be 30.4%. Besides, the AC50 under setting [1] is 29.1 µM [rising, single point]. Also, under setting [2], the AC50 was 29.1 µM [rising, single point].
Turning to `O=C(Nc1ccc2c(c1)OCO2)c1cnn2c1NC(c1ccco1)CC2C(F)(F)F` (stereo not given), the cell number change is -5.37%. Also, the AC50 under setting [2] was 0.82 µM [rising, partial curve, poor fit].
`Cc1nn(C)c(C)c1C(=O)NN`: the cell number change is -21.6%. Moreover, under setting [2], the AC50 was 29.1 µM [falling, single point].
Take `COc1ccc(-c2nn(-c3ccccc3)cc2/C=C/C(=O)OCC(=O)Nc2ccccc2C#N)cc1`: the cell number change turned out to be 74.2%. In addition, the AC50 under setting [1] was 20.6 µM [rising, partial curve]. Besides, the AC50 under setting [2] is 29.1 µM [rising, single point].
Turning to `CC(C(=O)Nc1ccc2c(c1)OCCO2)N(C)CC(=O)Nc1ccccc1Br` (stereo not given), the AC50 by setting is: under setting [1], 0.366 µM [falling, single point]; under setting [2], 29.1 µM [falling, single point].
In the case of `Cc1ccc(C(C(=O)NCC2CCCO2)N(C(=O)c2snc(C(N)=O)c2N)c2ccc3c(c2)OCCO3)cc1` (stereo not given), the cell number change is -13.5%. In addition, the AC50 under setting [1] is 6.51 µM [falling, single point].
Regarding `CCc1nn2cc(C(=O)c3ccccc3O)cnc2c1-c1ccc(F)cc1`, the cell number change came to 23.4%. The concentration at half-maximal activity (AC50) under setting [2] was 4.61 µM [rising, full curve].
`O=C(CN1CCN(C/C=C/c2ccccc2)CC1)NC(=O)NC1CCCCC1`: the cell number change was -9.17%. In addition, under setting [1], the AC50 was 0.651 µM [falling, single point].
Turning to `CN1C(=O)CSC1=Nc1cccc(Cl)c1`, the cell number change turned out to be 9.84%. Further, under setting [2], the AC50 was 0.0731 µM [rising, full curve, poor fit].
Consider `O=C(CNC(=O)c1ccccc1F)OCn1nnc2ccccc2c1=O`, for which the cell number change worked out at 11.1%. The AC50 under setting [2] was 18.4 µM [falling, partial curve, poor fit].
`Oc1c(C(c2cccs2)N2CCOCC2)sc2ncnn12` (stereo not given): the cell number change is -1.32%. Further, the AC50 under setting [2] is 1.16 µM [falling, full curve].
Turning to `O=C(CSc1nc2ccccc2c(=O)n1CCCN1CCOCC1)Nc1ccc2c(c1)OCO2`, the cell number change is 136%. Also, the AC50 under setting [1] was 29.1 µM [rising, partial curve]. The AC50 under setting [2] is 23.1 µM [rising, partial curve].
Regarding `O=C(CN1C(=O)S/C(=C\C=C\c2ccccc2)C1=O)N1CCCCC1`, the cell number change is 22%. The AC50 under setting [1] was 1.46 µM [rising, full curve, poor fit]. Besides, under setting [2], the AC50 was 1.3 µM [rising, full curve, poor fit].
As to `CCN(CC(=O)NCc1ccc(Cl)cc1)S(=O)(=O)c1ccc(NC(C)=O)cc1`, the cell number change was found to be 57.9%. In addition, the AC50 under setting [1] was 29.1 µM [rising, single point].
For the compound `O=C1CCCc2nc(N3CCc4ccccc43)ncc21`, the AC50 is 3.66 µM [rising, single point] under setting [1] and 0.731 µM [rising, full curve] under setting [2].
Regarding `O=C(NCCCN1CCOCC1)c1cc(Cl)ccc1Cl`, the cell number change was 7.77%. Also, under setting [2], the AC50 is 0.731 µM [rising, partial curve, poor fit].
As to `COc1ccc(/C=N/N2CCOCC2)cc1COc1ccc(Cl)cc1`, the cell number change is -117%. Besides, under setting [1], the AC50 was 29.1 µM [falling, single point]. The AC50 under setting [2] is 29.1 µM [rising, single point].
Consider `NC(=O)CSc1nnc(C2CC2)n1Cc1ccccc1`, for which the cell number change was -14.5%. Moreover, the AC50 under setting [1] is 0.651 µM [falling, full curve, poor fit].
Turning to `CC(C)(C)c1ccc(S(=O)(=O)N2CCC(CO)(CC3CCCCO3)CC2)cc1` (stereo not given), the cell number change was -13.1%. Further, the AC50 under setting [2] was 0.58 µM [falling, full curve].
`CC(C)NC(=O)CN(C(=O)CCC(=O)Nc1nccs1)c1ccc2c(c1)OCO2`: the cell number change was -25.6%. Also, under setting [1], the AC50 is 0.651 µM [falling, full curve, poor fit]. In addition, the AC50 under setting [2] was 29.1 µM [rising, single point].
Turning to `Cc1cc(C)c(C)c(/C=C(/C#N)C(N)=S)c1C`, the cell number change is -33.3%. Also, under setting [1], the AC50 was 0.164 µM [falling, full curve, poor fit].
In the case of `CN1C(=O)N(CC(=O)Nc2nccs2)C(=O)C12CCCCC2`, the cell number change was 42.2%. For the same compound, the AC50 under setting [2] was 5.8 µM [falling, single point].
On to `CC1CCCC(NC(=O)COC(=O)c2c[nH]c(=O)[nH]c2=O)C1C` (stereo not given), for which the cell number change was 13.5%. Moreover, the half-maximal activity concentration (AC50) under setting [2] was 4.61 µM [falling, full curve, poor fit].
In the case of `CCn1c(CN2CCN(c3ccc(OC)cc3)CC2)nc2cc(S(=O)(=O)N(C)C)ccc21`, the cell number change amounted to 29.4%. Besides, under setting [2], the AC50 was 0.58 µM [falling, single point].
`O=C(N/N=C/c1ccccc1OCc1ccccc1)c1cccs1`: the cell number change came out at 22.9%. Further, the AC50 under setting [2] was 3.66 µM [rising, partial curve, poor fit].
As to `O=C(CCS(=O)(=O)Cc1ccccc1)NC1CCCCC1`, the cell number change was -10.5%. Moreover, under setting [2], the AC50 was 4.11 µM [falling, full curve].
As to `Clc1ccc(-c2nnc3sc(-c4ccco4)nn23)c(Cl)c1`, the cell number change worked out at 4.5%. Moreover, the AC50 under setting [2] was 29.1 µM [falling, single point].
On to `CC(NC(=O)c1ccco1)C12CC3CC(CC(C3)C1)C2` (stereo not given), for which the cell number change is -11.3%. Moreover, the AC50 under setting [2] was 6.51 µM [rising, single point].
As to `Cc1cccc2sc(N(CCN(C)C)C(=O)/C=C/c3cccs3)nc12`, the cell number change was -56.1%. Also, the AC50 under setting [1] is 11.6 µM [falling, partial curve]. For the same compound, the AC50 under setting [2] was 13 µM [falling, partial curve].
In the case of `CC(C)Cn1c(-c2ccco2)csc1=Nc1cccnc1`, the cell number change was -6%. In addition, the AC50 under setting [2] is 6.51 µM [falling, single point].
In the case of `S=c1[nH]nc(Cc2ccc(Br)cc2)n1/N=C/c1ccc(Cl)cc1`, the cell number change was -38%. Under setting [1], the AC50 is 17.8 µM [falling, single point].
